# Reference: publication PMC12447449
# The chains behind the UniProt entries cited, without tags or fusion partners.
# UniProt Q86XN7: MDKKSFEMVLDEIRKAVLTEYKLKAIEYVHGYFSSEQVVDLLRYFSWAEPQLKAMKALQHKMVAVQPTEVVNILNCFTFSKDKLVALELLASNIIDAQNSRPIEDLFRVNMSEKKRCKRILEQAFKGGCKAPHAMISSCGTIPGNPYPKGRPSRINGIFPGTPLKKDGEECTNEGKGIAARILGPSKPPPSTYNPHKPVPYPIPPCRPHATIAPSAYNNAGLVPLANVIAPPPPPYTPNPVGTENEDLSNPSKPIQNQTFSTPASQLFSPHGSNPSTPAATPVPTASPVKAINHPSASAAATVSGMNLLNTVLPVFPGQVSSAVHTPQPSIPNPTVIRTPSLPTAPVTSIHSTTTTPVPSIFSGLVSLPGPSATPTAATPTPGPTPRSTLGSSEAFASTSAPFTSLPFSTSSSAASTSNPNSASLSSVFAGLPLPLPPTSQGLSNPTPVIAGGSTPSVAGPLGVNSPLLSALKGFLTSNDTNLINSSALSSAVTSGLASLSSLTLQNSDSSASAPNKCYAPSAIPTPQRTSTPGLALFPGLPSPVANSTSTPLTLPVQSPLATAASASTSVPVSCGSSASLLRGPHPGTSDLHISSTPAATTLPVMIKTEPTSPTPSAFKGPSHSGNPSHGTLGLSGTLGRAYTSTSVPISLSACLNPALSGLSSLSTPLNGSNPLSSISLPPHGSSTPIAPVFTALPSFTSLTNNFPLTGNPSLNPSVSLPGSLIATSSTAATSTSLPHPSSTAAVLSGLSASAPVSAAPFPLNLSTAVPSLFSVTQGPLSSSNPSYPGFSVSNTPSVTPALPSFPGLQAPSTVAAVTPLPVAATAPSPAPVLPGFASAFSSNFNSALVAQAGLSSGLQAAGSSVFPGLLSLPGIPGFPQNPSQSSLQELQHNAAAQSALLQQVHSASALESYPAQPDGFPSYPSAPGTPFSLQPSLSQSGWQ
# These are yes or no findings as the source states them, for the method shown. In cells and extracts the contact can be indirect. These calls come from enrichment with a bait or labelling near it, and not all partners need be listed. Sequences can lack the tags named with a protein.
# Target: FLAG-tagged full-length human TET2 (human) (UniProt Q6N021)
# Test: affinity purification with mass spectrometry; FLAG M2 immunoprecipitation and mass spectrometry from K562 cells overexpressing FLAG-tagged full-length human TET2, compared to wild-type K562 control; n = 3 biological replicates
row,Molecule,binding
1,Proline and serine rich 1 (PROSER1) (from UniProt Q86XN7 1-944),binds
2,"O-linked N-acetylglucosamine transferase (OGT) (enzyme, UniProt O15294 1-1046) MASSVGNVADSTEPTKRMLSFQGLAELAHREYQAGDFEAAERHCMQLWRQEPDNTGVLLLLSSIHFQCRRLDRSAHFSTLAIKQNPLLAEAYSNLGNVYKERGQLQEAIEHYRHALRLKPDFIDGYINLAAALVAAGDMEGAVQAYVSALQYNPDLYCVRSDLGNLLKALGRLEEAKACYLKAIETQPNFAVAWSNLGCVFNAQGEIWLAIHHFEKAVTLDPNFLDAYINLGNVLKEARIFDRAVAAYLRALSLSPNHAVVHGNLACVYYEQGLIDLAIDTYRRAIELQPHFPDAYCNLANALKEKGSVAEAEDCYNTALRLCPTHADSLNNLANIKREQGNIEEAVRLYRKALEVFPEFAAAHSNLASVLQQQGKLQEALMHYKEAIRISPTFADAYSNMGNTLKEMQDVQGALQCYTRAIQINPAFADAHSNLASIHKDSGNIPEAIASYRTALKLKPDFPDAYCNLAHCLQIVCDWTDYDERMKKLVSIVADQLEKNRLPSVHPHHSMLYPLSHGFRKAIAERHGNLCLDKINVLHKPPYEHPKDLKLSDGRLRVGYVSSDFGNHPTSHLMQSIPGMHNPDKFEVFCYALSPDDGTNFRVKVMAEANHFIDLSQIPCNGKAADRIHQDGIHILVNMNGYTKGARNELFALRPAPIQAMWLGYPGTSGALFMDYIITDQETSPAEVAEQYSEKLAYMPHTFFIGDHANMFPHLKKKAVIDFKSNGHIYDNRIVLNGIDLKAFLDSLPDVKIVKMKCPDGGDNADSSNTALNMPVIPMNTIAEAVIEMINRGQIQITINGFSISNGLATTQINNKAATGEEVPRTIIVTTRSQYGLPEDAIVYCNFNQLYKIDPSTLQMWANILKRVPNSVLWLLRFPAVGEPNIQQYAQNMGLPQNRIIFSPVAPKEEHVRRGQLADVCLDTPLCNGHTTGMDVLWAGTPMVTMPGETLASRVAASQLTCLGCLELIAKNRQEYEDIAVKLGTDLEYLKKVRGKVWKQRISSPLFNTKQYTMELERLYLQMWEHYAAGNKPDHMIKPVEVTESA",binds

# More lines, now with the values ahead:
row,binding,Molecule
1,binds,"PSPC1 (protein, UniProt Q8WXF1 1-523) MMLRGNLKQVRIEKNPARLRALESAVGESEPAAAAAMALALAGEPAPPAPAPPEDHPDEEMGFTIDIKSFLKPGEKTYTQRCRLFVGNLPTDITEEDFKRLFERYGEPSEVFINRDRGFGFIRLESRTLAEIAKAELDGTILKSRPLRIRFATHGAALTVKNLSPVVSNELLEQAFSQFGPVEKAVVVVDDRGRATGKGFVEFAAKPPARKALERCGDGAFLLTTTPRPVIVEPMEQFDDEDGLPEKLMQKTQQYHKEREQPPRFAQPGTFEFEYASRWKALDEMEKQQREQVDRNIREAKEKLEAEMEAARHEHQLMLMRQDLMRRQEELRRLEELRNQELQKRKQIQLRHEEEHRRREEEMIRHREQEELRRQQEGFKPNYMENREQEMRMGDMGPRGAINMGDAFSPAPAGNQGPPPMMGMNMNNRATIPGPPMGPGPAMGPEGAANMGTPMMPDNGAVHNDRFPQGPPSQMGSPMGSRTGSETPQAPMSGVGPVSGGPGGFGRGSQGGNFEGPNKRRRY"
2,binds,"NONO (protein, UniProt Q15233 1-471) MQSNKTFNLEKQNHTPRKHHQHHHQQQHHQQQQQQPPPPPIPANGQQASSQNEGLTIDLKNFRKPGEKTFTQRSRLFVGNLPPDITEEEMRKLFEKYGKAGEVFIHKDKGFGFIRLETRTLAEIAKVELDNMPLRGKQLRVRFACHSASLTVRNLPQYVSNELLEEAFSVFGQVERAVVIVDDRGRPSGKGIVEFSGKPAARKALDRCSEGSFLLTTFPRPVTVEPMDQLDDEEGLPEKLVIKNQQFHKEREQPPRFAQPGSFEYEYAMRWKALIEMEKQQQDQVDRNIKEAREKLEMEMEAARHEHQVMLMRQDLMRRQEELRRMEELHNQEVQKRKQLELRQEEERRRREEEMRRQQEEMMRRQQEGFKGTFPDAREQEIRMGQMAMGGAMGINNRGAMPPAPVPAGTPAPPGPATMMPDGTLGLTPPTTERFGQAATMEGIGAIGGTPPAFNRAAPGAEFAPNKRRRY"
